From patent US20200000969A1, “HYALURONIC ACID COMPOSITIONS INCLUDING MEPIVACAINE” (LABORATOIRES VIVACY, priority 2013, published 2020)

Test: Release kinetics of local anesthetic from hyaluronic acid gel by dialysis, UV-visible spectrophotometry
Assay type: physicochemical
Conditions: HA 3×10^6 Da, X=0.12, 20 mg/g; for mass percentage of local anesthetic in the hyaluronic acid gel: initial 3 mg/g, 37° C., physiological saline
Description: The initial concentrations of mepivacaine or lidocaine are 3 mg/g. The protocol for studying the release kinetics of the two local anesthetics is the same as that used in Example 5 of patent application WO 2010/015 901 in the name of Allergan. The release kinetics were, however, studied at 37° C. in physiological saline medium. Monitoring by UV-visible spectrophotometry is performed to assay the local anesthetic present in the gel. In Table 13 below, the mass percentages of lidocaine or mepivacaine in the hyaluronic acid gel measured after various dialysis times are specified.

release kinetics from the hyaluronic acid gel (FIG. 1), lidocaine versus mepivacaine (3 mg/g, dialysis at 37° C. in physiological saline): comparable
mass percentage of local anesthetic in the hyaluronic acid gel (dialysis time 0 h): 0.293 mass %
mass percentage of local anesthetic in the hyaluronic acid gel (dialysis time 1.5 h): 0.160 mass %
mass percentage of local anesthetic in the hyaluronic acid gel (dialysis time 5 h): 0.109 mass %
mass percentage of local anesthetic in the hyaluronic acid gel (dialysis time 7 h): 0.103 mass %
mass percentage of local anesthetic in the hyaluronic acid gel (dialysis time 23 h): 0.091 mass %
mass percentage of local anesthetic in the hyaluronic acid gel (dialysis time 48 h): 0.084 mass %
mass percentage of local anesthetic in the hyaluronic acid gel (dialysis time 72 h): 0.082 mass %
Compound: CCN(CC)CC(=O)Nc1c(C)cccc1C [Lidocaine, lidocaine]
